Reference: paper PMC3527510, “Bin2 Is a Membrane Sculpting N-BAR Protein That Influences Leucocyte Podosomes, Motility and Phagocytosis” (PLoS ONE, 2012)
Results are given in words; binding and its absence hold for the method and conditions named. For some of these results: Binding seen in cells or lysates may run through a third protein. Some entries that bind do so weakly or less than the wild type. For some of these results: Tags and fused reporters may be left off the sequences shown.

By UniProt entry, the sequences of proteins in these tests, tags left out.
UniProt Q14155: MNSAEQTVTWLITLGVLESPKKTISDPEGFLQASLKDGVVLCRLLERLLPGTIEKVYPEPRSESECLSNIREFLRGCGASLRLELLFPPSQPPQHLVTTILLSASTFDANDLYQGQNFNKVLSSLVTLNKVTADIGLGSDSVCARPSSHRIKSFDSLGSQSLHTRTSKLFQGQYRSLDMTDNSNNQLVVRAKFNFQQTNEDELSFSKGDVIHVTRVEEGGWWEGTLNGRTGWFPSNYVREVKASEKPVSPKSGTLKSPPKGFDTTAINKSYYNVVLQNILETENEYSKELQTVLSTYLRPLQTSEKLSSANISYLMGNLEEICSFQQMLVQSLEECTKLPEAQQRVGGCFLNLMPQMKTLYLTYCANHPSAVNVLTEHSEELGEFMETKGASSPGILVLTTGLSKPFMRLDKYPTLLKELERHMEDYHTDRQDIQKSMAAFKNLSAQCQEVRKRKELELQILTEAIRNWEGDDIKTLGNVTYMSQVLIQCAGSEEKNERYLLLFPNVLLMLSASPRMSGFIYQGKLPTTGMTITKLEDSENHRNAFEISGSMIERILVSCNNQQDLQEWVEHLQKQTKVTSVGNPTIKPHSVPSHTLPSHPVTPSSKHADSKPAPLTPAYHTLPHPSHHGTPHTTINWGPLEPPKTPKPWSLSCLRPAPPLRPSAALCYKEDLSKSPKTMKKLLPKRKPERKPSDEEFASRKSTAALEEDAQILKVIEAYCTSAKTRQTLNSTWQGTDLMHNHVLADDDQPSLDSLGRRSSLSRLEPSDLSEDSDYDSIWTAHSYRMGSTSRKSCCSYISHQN
UniProt Q99961: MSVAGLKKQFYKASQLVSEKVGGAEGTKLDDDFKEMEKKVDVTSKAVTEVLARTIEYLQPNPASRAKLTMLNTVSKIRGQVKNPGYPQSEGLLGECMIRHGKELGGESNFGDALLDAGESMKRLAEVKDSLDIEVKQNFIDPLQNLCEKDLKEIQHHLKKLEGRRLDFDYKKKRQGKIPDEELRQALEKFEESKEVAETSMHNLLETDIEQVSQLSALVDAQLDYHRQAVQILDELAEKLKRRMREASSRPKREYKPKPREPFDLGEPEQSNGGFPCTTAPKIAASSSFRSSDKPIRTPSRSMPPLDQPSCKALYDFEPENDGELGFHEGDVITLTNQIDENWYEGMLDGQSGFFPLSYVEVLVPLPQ
UniProt O35179: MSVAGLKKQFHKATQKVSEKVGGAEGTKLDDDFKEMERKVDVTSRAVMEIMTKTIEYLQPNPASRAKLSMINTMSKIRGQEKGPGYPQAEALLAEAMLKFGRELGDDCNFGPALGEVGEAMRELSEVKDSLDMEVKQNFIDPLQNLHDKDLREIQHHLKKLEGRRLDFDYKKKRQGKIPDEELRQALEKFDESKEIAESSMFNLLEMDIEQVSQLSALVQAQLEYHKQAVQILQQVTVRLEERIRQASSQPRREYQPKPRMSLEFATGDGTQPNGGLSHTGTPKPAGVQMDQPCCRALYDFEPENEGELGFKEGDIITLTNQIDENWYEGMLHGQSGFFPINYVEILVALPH
UniProt O35180: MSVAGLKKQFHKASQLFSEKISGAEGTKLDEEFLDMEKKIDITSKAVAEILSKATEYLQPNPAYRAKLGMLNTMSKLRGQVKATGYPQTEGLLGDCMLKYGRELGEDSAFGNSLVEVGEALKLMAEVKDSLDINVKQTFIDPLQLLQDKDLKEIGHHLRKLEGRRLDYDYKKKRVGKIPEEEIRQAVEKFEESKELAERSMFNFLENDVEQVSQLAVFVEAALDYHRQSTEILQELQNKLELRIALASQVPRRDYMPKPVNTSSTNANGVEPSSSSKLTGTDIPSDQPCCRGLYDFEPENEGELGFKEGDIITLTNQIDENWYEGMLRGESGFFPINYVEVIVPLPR

T1: Bin2, endogenous in human B cells (721.221) (human (endogenous in 721.221)) (UniProt Q9UBW5)
T1 sequence: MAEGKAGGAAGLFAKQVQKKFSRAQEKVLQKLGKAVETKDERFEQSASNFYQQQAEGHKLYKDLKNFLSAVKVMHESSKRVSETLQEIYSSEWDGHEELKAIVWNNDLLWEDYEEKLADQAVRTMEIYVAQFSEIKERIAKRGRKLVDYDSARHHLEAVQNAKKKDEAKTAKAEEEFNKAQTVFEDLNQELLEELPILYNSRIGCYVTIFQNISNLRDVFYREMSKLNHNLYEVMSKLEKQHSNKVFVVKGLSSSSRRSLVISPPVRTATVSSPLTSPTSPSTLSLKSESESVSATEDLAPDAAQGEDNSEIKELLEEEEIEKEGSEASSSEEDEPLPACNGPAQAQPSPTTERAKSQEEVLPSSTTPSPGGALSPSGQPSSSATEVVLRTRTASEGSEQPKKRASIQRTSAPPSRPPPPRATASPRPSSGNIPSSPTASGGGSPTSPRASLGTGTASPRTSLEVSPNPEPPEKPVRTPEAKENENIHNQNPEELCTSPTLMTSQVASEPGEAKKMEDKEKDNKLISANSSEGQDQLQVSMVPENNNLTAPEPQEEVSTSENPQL

T2: GST-hBin2-CT (C-terminal region of human Bin2, amino acids 237-565) (human) (UniProt Q9UBW5)
T2 sequence: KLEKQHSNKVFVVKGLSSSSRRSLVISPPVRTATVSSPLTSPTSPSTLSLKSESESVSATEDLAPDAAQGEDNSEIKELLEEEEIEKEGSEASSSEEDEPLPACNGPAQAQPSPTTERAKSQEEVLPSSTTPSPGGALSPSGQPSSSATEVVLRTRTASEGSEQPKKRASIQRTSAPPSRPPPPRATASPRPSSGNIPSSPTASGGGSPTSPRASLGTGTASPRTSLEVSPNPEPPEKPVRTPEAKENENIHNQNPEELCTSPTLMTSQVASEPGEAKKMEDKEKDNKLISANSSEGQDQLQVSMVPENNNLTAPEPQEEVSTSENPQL


Columns and labels:
[1] = target: T1, Bin2, endogenous in human B cells (721.221) (human (endogenous in 721.221)); assay: co-IP; anti-Bin2 polyclonal antibody (BACT) on protein A:G Sepharose with lysates of human B cells (721.221) or rat mast cells (RBL·2H3), 4°C, 3 h; 20 mM HEPES, 150 mM NaCl, 1 mM DTT, 0.3% Triton X-100, 1% NP-40; Coomassie bands identified by LC-MS/MS; control with pre-immune serum
[2] = target: T2, GST-hBin2-CT (C-terminal region of human Bin2, amino acids 237-565) (human); assay: pull-down; GST-Bin2-CT on glutathione-sepharose beads with cytosolic extracts of cells or rat tissues, 4°C, 40 min; buffer H with detergents; bands identified by LC-MS/MS and western blot; only the target purified
[3] = target: Human Bin2 N-BAR domain (1-238) (human) (UniProt Q9UBW5); assay: SEC; gel filtration of purified hBin2 N-BAR after GST cleavage and ion exchange; single peak; both purified

| Molecule | binding [1] | binding [2] | also measured |
| --- | --- | --- | --- |
| β-PIX, endogenous in human B cells (721.221) (from UniProt Q14155 1-803) | binds | – | – |
| Endophilin A2, endogenous in human B cells (721.221) (from UniProt Q99961 1-368) | – | binds | – |
| Human Bin2 N-BAR domain (1-238) (domain or fragment, UniProt Q9UBW5 1-238, looked up, Bridging integrator-2 (Bin2, BRAP1), human, residues 1-238; also called hBin2 N-BAR; source: E. coli DH5α, purified (glutathione sepharose, thrombin cleavage, HiTrap Q, gel filtration)) MAEGKAGGAAGLFAKQVQKKFSRAQEKVLQKLGKAVETKDERFEQSASNFYQQQAEGHKLYKDLKNFLSAVKVMHESSKRVSETLQEIYSSEWDGHEELKAIVWNNDLLWEDYEEKLADQAVRTMEIYVAQFSEIKERIAKRGRKLVDYDSARHHLEAVQNAKKKDEAKTAKAEEEFNKAQTVFEDLNQELLEELPILYNSRIGCYVTIFQNISNLRDVFYREMSKLNHNLYEVMSKL | – | – | binding [3]: binds |
| α-PIX, endogenous in human B cells (721.221) (protein, UniProt Q15052 1-776) MNPEEQIVTWLISLGVLESPKKTICDPEEFLKSSLKNGVVLCKLINRLMPGSVEKFCLDPQTEADCINNINDFLKGCATLQVEIFDPDDLYSGVNFSKVLSTLLAVNKATEDQLSERPCGRSSSLSAANTSQTNPQGAVSSTVSGLQRQSKTVEMTENGSHQLIVKARFNFKQTNEDELSVCKGDIIYVTRVEEGGWWEGTLNGRTGWFPSNYVREIKSSERPLSPKAVKGFETAPLTKNYYTVVLQNILDTEKEYAKELQSLLVTYLRPLQSNNNLSTVEVTSLLGNFEEVCTFQQTLCQALEECSKFPENQHKVGGCLLSLMPHFKSMYLAYCANHPSAVNVLTQHSDELEQFMENQGASSPGILILTTNLSKPFMRLEKYVTLLQELERHMEDTHPDHQDILKAIVAFKTLMGQCQDLRKRKQLELQILSEPIQAWEGEDIKNLGNVIFMSQVMVQYGACEEKEERYLMLFSNVLIMLSASPRMSGFIYQGKIPIAGTVVTRLDEIEGNDCTFEITGNTVERIVVHCNNNQDFQEWLEQLNRLIRGPASCSSLSKTSSSSCSAHSSFSSTGQPRGPLEPPQIIKPWSLSCLRPAPPLRPSAALGYKERMSYILKESSKSPKTMKKFLHKRKTERKPSEEEYVIRKSTAALEEDAQILKVIEAYCTSANFQQGHGSSTRKDSIPQVLLPEEEKLIIEETRSNGQTIMEEKSLVDTVYALKDEVRELKQENKRMKQCLEEELKSRRDLEKLVRRLLKQTDECIRGESSSKTSILP | binds | – | – |
| Git2, endogenous in human B cells (721.221) (protein, UniProt Q14161 1-759) MSKRLRSSEVCADCSGPDPSWASVNRGTFLCDECCSVHRSLGRHISQVRHLKHTPWPPTLLQMVETLYNNGANSIWEHSLLDPASIMSGRRKANPQDKVHPNKAEFIRAKYQMLAFVHRLPCRDDDSVTAKDLSKQLHSSVRTGNLETCLRLLSLGAQANFFHPEKGNTPLHVASKAGQILQAELLAVYGADPGTQDSSGKTPVDYARQGGHHELAERLVEIQYELTDRLAFYLCGRKPDHKNGQHFIIPQMADSSLDLSELAKAAKKKLQSLSNHLFEELAMDVYDEVDRRETDAVWLATQNHSALVTETTVVPFLPVNPEYSSTRNQGRQKLARFNAHEFATLVIDILSDAKRRQQGSSLSGSKDNVELILKTINNQHSVESQDNDQPDYDSVASDEDTDLETTASKTNRQKSLDSDLSDGPVTVQEFMEVKNALVASEAKIQQLMKVNNNLSDELRIMQKKLQTLQSENSNLRKQATTNVYQVQTGSEYTDTSNHSSLKRRPSARGSRPMSMYETGSGQKPYLPMGEASRPEESRMRLQPFPAHIGRSALVTSSSSLPSFPSTLSWSRDESARRASRLEKQNSTPESDYDNTPNDMEPDGMGSSRKGRQRSMVWPGDGLVPDTAEPHVAPSPTLPSTEDVIRKTEQITKNIQELLRAAQENKHDSYIPCSERIHVAVTEMAALFPKKPKSDMVRTSLRLLTSSAYRLQSECKKTLPGDPGSPTDVQLVTQQVIQCAYDIAKAAKQLVTITTKENNN | binds | – | – |

Now from value to molecule, other results behind:

| binding [1] | binding [2] | Molecule | also measured |
| --- | --- | --- | --- |
| – | binds | Endophilin A1, endogenous in rat brain (from UniProt O35179 1-352) | – |
| – | binds | Endophilin A3, endogenous in rat testis (from UniProt O35180 1-347) | – |
